Measured values reported in patent US20220025008A1 (FAPON BIOTECH, published 2022).
No constants are given. Whether binding was seen depends on the method and setting. Some entries that bind do so weakly or less than the wild type.

Sequences of proteins named here, by UniProt entry; tags and fusion partners are left off. Residues count along the entry.
UniProt P16860, residues 27-102: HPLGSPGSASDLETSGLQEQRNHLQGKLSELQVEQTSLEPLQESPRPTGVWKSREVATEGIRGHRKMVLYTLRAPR

Biological target: Recombinant NT antigen (N-terminal pro-brain natriuretic peptide, NT-proBNP) (human) (UniProt P16860)
Assay: indirect ELISA on coated recombinant NT antigen

binding: binds
B1: Mutation 1 (antibody, V domains shown)
VH: QVRLQESGPSQVKPAQTLSLTCAISGFSITTYYIDWVRHTPGKPPEWLAQMTKDGNAVHQPTIRSRLSITRDTSKSQVFLKLTGVTTEDTAVYYCVRGIIDWGPGLLVTVSS
VL: QAVLTQPSSVSRSLGQTVSITCSGSSDQVGFGDYVNWFQLIPGSAPKTLIFGATSRIRGVPDRFSGSRSGNTATLTINSLQAEDEADYYCGSPNSRGGYVFGSGTRLTVLS
notes: also called mutant 1 antibody
